From PubChem BioAssay AID504834 (National Center for Advancing Translational Sciences (NCATS), 2011)
Where “and” joins values, the source holds several entries; their conditions need not be identical. Identical values can stand only once. Hit rate of the full screen: of about 320,000 compounds, about 22,000 (6.9%) were called active. This list was built around the results that the source calls inconclusive (neither active nor inactive); the mix of calls is not that of the screen. Calls follow the shape of the dose curve; as a rule, active = well fitted inhibition curve with a large enough effect; inconclusive = small, poorly fitted or top-dose-only effect, or another doubt; inactive = no such curve, though single readings can be large or run the other way. Where the call is inconclusive, the potency comes from a doubtful curve fit.
% is scaled to controls: 0 for no effect and ±100 for the full control effect; potency is read from the fitted curve at half-maximal effect.

Assay: Primary qHTS for delayed death inhibitors of the malarial parasite plastid, 96 hour incubation
Conditions: P. falciparum luciferase reporter growth; series mostly up to 28.7 µM; activity change, negative = inhibition: at the top concentration
Summary of the method: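 Two parasite generations (96 h, 37 C, 5% CO2) of compound exposure in infected erythrocytes (0.05% parasitemia, 2% hematocrit). Luciferase-reporter P. falciparum; decreased luminescence indicates inhibited growth, aimed at apicoplast-acting delayed death.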
With `CCS(=O)(=O)N1CCN(Cc2nc3ccccc3c(=O)[nH]2)CC1` the “activity change, negative = inhibition” value was inactive: -16.7%.
For `O=C(CN1C(=O)NC(Cc2ccccc2)C1=O)NC(=O)NC1CCCCC1` (centres undefined), the Potency was inconclusive: 14.7 µM [inhibitor, partial curve, poor fit].
With `COc1ccccc1C(=O)Nc1ccc2c(c1)nc(CCNC(C)=O)n2C` the Potency was inconclusive: 5.86 µM [inhibitor, partial curve].
For `COC(=O)/C=C1/S/C(=N/N=C/c2ccc(N(C)C)cc2)NC1=O`, the “activity change, negative = inhibition” value was inactive: 69.8%.
With `C=CCOc1cccc(C2C(C(=O)c3ccco3)=C(O)C(=O)N2CCN2CCOCC2)c1` (centres undefined) the “activity change, negative = inhibition” value was inactive: 3.46%.
With `CCC1=C(OC(=O)N(CC)CC)N2C(=O)OC(=NCCOC)[C@]2(Cc2ccccc2)[C@H]2C1=CC[C@H]1C(=O)NC(=O)[C@H]12` the Potency was inconclusive: 18.5 µM [inhibitor, single point].
In the case of `COc1ccccc1C(=O)N=C1SC2CS(=O)(=O)CC2N1c1ccccc1` (centres undefined), the Potency is reported as inconclusive: 20.8 µM [inhibitor, partial curve, poor fit].
With `CCOc1ccc(-n2c(=O)c3c4c(sc3n(CC(=O)NCC3CCCO3)c2=O)CCC4)cc1` (centres undefined) the Potency was inconclusive: 18.5 µM [inhibitor, single point].
With `CN(Cc1ccccc1)C(=O)CNC(=O)Cn1cnc2ccccc2c1=O` the Potency was inconclusive: 2.62 µM [inhibitor, full curve, poor fit].
With `Cc1ccnc(NC(=O)c2ccc3c(c2)NC(=O)C(C)S3)c1` (centres undefined) the “activity change, negative = inhibition” value was inactive: 246%.
For `C/C(=N/NC(=O)c1ccccn1)c1ccc(O)cc1`, the “activity change, negative = inhibition” value was inactive: 312%.
In the case of `Cc1sc(NC(=O)c2ccccc2)c(C(=O)c2ccccc2)c1C`, the Potency is reported as active: 11.7 µM.
With `C=CCN1CC[C@]23CCCCC2[C@H]1Cc1ccc(O)cc13` (some centres undefined) the Potency was active: 15.1 µM.
In the case of `CCOc1ccc2[nH]c3c(NCC(C)C)ncnc3c2c1`, the Potency is reported as active: 1.65 µM.
For `CN(C)C(CNC(=O)c1cc2ccccc2oc1=O)c1ccccc1` (centres undefined), the “activity change, negative = inhibition” value was inactive: 34.6%.
For `O=C(N[C@@H]1CCC(=O)N(CC[C@H](Oc2ccccc2)c2ccccc2)CC1)OCc1ccccc1`, the Potency was active: 10.4 µM.
With `COc1cc(-c2nc(CN3CCCCC3CCNC(C)=O)c(C)o2)ccc1F` (centres undefined) the “activity change, negative = inhibition” value was inactive: 18.9%.
In the case of `CCc1ccc(C(=O)NNC(=O)C2CCN(c3ncnc4sc(C)c(C)c34)CC2)cc1`, the Potency is reported as inconclusive: 11.7 µM [inhibitor, partial curve].
For `CCOc1cc(C(=O)N2CCC(CC3CC(c4ccc(Cl)cc4)=NO3)(C(=O)NCC3CCCCC3)CC2)cc(OCC)c1OCC` (centres undefined), the Potency was active: 0.233 µM.
For `CCOC(=O)[C@H]1[C@H]2COc3ccccc3[C@@H]2N2C(=O)c3ccc(Cl)cc3NC(=O)[C@@]12C`, the Potency was inconclusive: 18.5 µM [inhibitor, single point].
For `CCOC(=O)C(C)(C)N(Cc1cccc(C)c1)S(=O)(=O)c1cccc([N+](=O)[O-])c1`, the Potency was inconclusive: 16.5 µM [inhibitor, single point].
For `O=C(N/N=C/c1c(O)n(CCc2ccc(F)cc2)c(=O)[nH]c1=O)c1ccncc1`, the Potency was inconclusive: 18.5 µM [inhibitor, single point].
For `CSc1cccc(Nc2ccc(S(=O)(=O)N3CCOCC3)cc2[N+](=O)[O-])c1`, the Potency was inconclusive: 18.5 µM [inhibitor, single point].
For `COc1ccc(C2CC(c3ccccc3)=NN2C(=O)COC(=O)c2cccc(S(=O)(=O)N(C)C)c2)cc1` (centres undefined), the Potency was inconclusive: 3.29 µM [inhibitor, single point].
In the case of `COc1cccc(C2CCN(CC(=O)Nc3cc(Cl)ccc3OC)CC2O)c1` (centres undefined), the Potency is reported as inconclusive: 10.4 µM [inhibitor, partial curve, poor fit].
With `COC(=O)C1CCN(Cc2ccc(OCCCN3CCN(c4ccc([N+](=O)[O-])cc4)CC3)cc2)CC1` the Potency was active: 10.4 µM.
For `CCN(c1ccccc1)S(=O)(=O)c1cccc(C(=O)NCCN2CCOCC2)c1`, the Potency was inconclusive: 11.7 µM [inhibitor, single point].
For `COc1cc(CC(=O)OCC(=O)Nc2ccc3c(c2)OCO3)cc(OC)c1OC`, the “activity change, negative = inhibition” value was inactive: -19.7%.
In the case of `O=C(CSc1nnnn1C1CC1)N1CCN(c2ccccc2F)CC1`, the “activity change, negative = inhibition” value is reported as inactive: -2.35%.
With `O=C(COc1ccc(-c2ccccc2)cc1)NNC(=O)Nc1ccccc1` the Potency was inconclusive: 18.5 µM [inhibitor, single point].
In the case of `CCCC(C(=O)NCC1CCCO1)N(Cc1ccco1)C(=O)CNS(=O)(=O)c1ccccc1` (centres undefined), the Potency is reported as inconclusive: 11.7 µM [inhibitor, single point].
For `O=C(Nc1cccc2ncccc12)c1ccc(-c2ccc(Cl)cc2Cl)o1`, the “activity change, negative = inhibition” value was inactive: 12.7%.
For `Cn1cc(C(=O)NC2CCCCC2)c(=O)c2cc(S(=O)(=O)N3CCCC3)ccc21`, the Potency was active: 8.28 µM.
In the case of `C=CCc1ccc(OCC(O)CN2CCc3ccccc3C2)c(OC)c1` (centres undefined), the Potency is reported as inconclusive: 9.28 µM [inhibitor, single point].
In the case of `CCc1nc(SCC(=O)c2ccc(C)c(C)c2)n[nH]1`, the “activity change, negative = inhibition” value is reported as inactive: 1.94%.
For `CCC(C)[C@H](NC(=O)[C@@H]1Cc2ccccc2CN1)C(=O)NCc1ccc(OC)cc1` (some centres undefined), the “activity change, negative = inhibition” value was inactive: -13.8%.
With `Cn1nc(-c2ccc(C(=O)Nc3cccnc3)cc2)c2ccccc2c1=O` the Potency was inconclusive: 18.5 µM [inhibitor, single point].
In the case of `Fc1cccc(CNc2ncnc3ccc(-c4ccc5c(c4)OCO5)cc23)c1`, the Potency is reported as active: 2.33 µM and active: 2.94 µM.
With `O=C1c2c(O)ccc(O)c2C(=O)c2c(NCCNCCO)ccc(NCCNCCO)c21` the Potency was active: 1.61 µM and active: 928 nM.
In the case of `COc1ccc(C(=O)C2CCCN(C(=O)c3ccccc3C(C)=O)C2)cc1F` (centres undefined), the Potency is reported as inconclusive: 18.5 µM [inhibitor, single point].
With `O=C(CSc1nc(Nc2ccccc2)nc(N2CCOCC2)n1)Nc1cc(Cl)ccc1O` the Potency was active: 5.22 µM.
For `c1ccc2nc3c(nc2c1)OCC1CCCCN31` (centres undefined), the “activity change, negative = inhibition” value was inactive: 131%.
For `COc1cc(OC)cc(-c2cc3nc(C4CCN(C(=O)OC(C)(C)C)CC4)cc(=O)n3[nH]2)c1`, the Potency was active: 1.65 µM.
In the case of `COCCCNC(=O)C1CCC(CNS(=O)(=O)c2ccc3c(c2)CC(C)N3C(=O)C2CC2)CC1` (centres undefined), the Potency is reported as active: 13.1 µM.
For `O=c1[nH]nc(SCc2nnc(-c3cccc(Cl)c3)o2)n1C1CCCCC1`, the “activity change, negative = inhibition” value was inactive: -14.6%.
For `Cc1cc(N2CCN(S(=O)(=O)c3ccccc3)CC2)c2ccccc2n1`, the Potency was inconclusive: 18.5 µM [inhibitor, single point].
For `CCc1nnc(NC(=O)CCC(=O)Nc2ccccc2)s1`, the “activity change, negative = inhibition” value was inactive: 21.9%.
For `COc1ccc(S(=O)(=O)N2CCCC2CNC(=O)C(=O)NCc2ccc3c(c2)OCO3)cc1` (centres undefined), the Potency was inconclusive: 10.4 µM [inhibitor, partial curve, poor fit].
For `CCOc1ccc(N2C(=O)CC(N(CCc3ccc(OC)c(OC)c3)C(=S)Nc3ccccc3)C2=O)cc1` (centres undefined), the Potency was inconclusive: 1.85 µM [inhibitor, partial curve, poor fit].
With `Cc1ccc(C(=O)NNC(=S)NC(=O)c2ccco2)cc1` the Potency was inconclusive: 0.928 µM [inhibitor, full curve, poor fit].
In the case of `COc1ccc(CC(=O)Nc2ccc3c(c2)OCO3)cc1S(=O)(=O)N1CCOCC1`, the “activity change, negative = inhibition” value is reported as inactive: -9.31%.
For `O=c1[nH]c2cc3c(cc2cc1CN(Cc1cccnc1)Cc1nnnn1Cc1ccco1)OCCO3`, the Potency was inconclusive: 20.8 µM [inhibitor, partial curve, poor fit].
For `CCOC(=O)N1CCN(C(=O)CSCc2ccccc2C)CC1`, the “activity change, negative = inhibition” value was inactive: 5.18%.
For `O=C(Nc1ccc(F)cc1F)c1cccc(S(=O)(=O)N2CCCCC2)c1`, the Potency was inconclusive: 9.28 µM [inhibitor, single point].
For `COc1ccc(/C=C/c2ccncc2)c2ccccc12`, the Potency was inconclusive: 6.57 µM [inhibitor, partial curve, poor fit].
In the case of `CN1CCN(S(=O)(=O)c2ccc(SCCOc3ccccc3)nc2)CC1`, the Potency is reported as inconclusive: 18.5 µM [inhibitor, single point].
For `CC(CCc1ccccc1)NC(=O)C1CCN(S(=O)(=O)c2ccc(F)cc2)CC1` (centres undefined), the Potency was inconclusive: 10.4 µM [inhibitor, single point].
In the case of `Cc1ccc(O)c(NC(=O)COc2cc(C)ccc2C)c1`, the Potency is reported as inconclusive: 3.29 µM [inhibitor, single point].
For `CCn1cc(C(=O)NCc2ccc3c(c2)OCO3)c(=O)c2cc(S(=O)(=O)N3CCOCC3)ccc21`, the Potency was inconclusive: 0.131 µM [inhibitor, single point].
For `CCc1nc(C#N)c(N2CCCCC2)o1`, the Potency was inconclusive: 0.738 µM [inhibitor, full curve, poor fit].
With `O=C1NC(=S)S/C1=C\c1coc2ccc(O)cc2c1=O` the Potency was inconclusive: 0.104 µM [inhibitor, full curve].
In the case of `CN1CCNC(=O)C1CC(=O)N1CC=C(c2ccc(F)cc2)CC1` (centres undefined), the Potency is reported as inconclusive: 18.5 µM [inhibitor, single point].
In the case of `CN1C(=O)N(C)C2C1NC(=O)N2C` (centres undefined), the Potency is reported as inconclusive: 14.7 µM [inhibitor, single point].
In the case of `CC(C)(C)c1ccc(OC(=O)c2cccnc2)cc1`, the Potency is reported as inconclusive: 11.7 µM [inhibitor, single point].
For `Cc1ccc(-c2nc3ccccc3n3nnnc23)cc1`, the “activity change, negative = inhibition” value was inactive: 349%.
For `O=C(CSc1ccc(Cl)cc1)Nc1cc(-c2nc3ncccc3o2)ccc1Cl`, the Potency was active: 4.65 µM.
With `O=C(c1ccc(OC2CCN(Cc3ccccn3)CC2)cc1)N1CCCC(O)C1` (centres undefined) the Potency was inconclusive: 18.5 µM [inhibitor, single point].
In the case of `Cc1ccc(-n2nnnc2-c2nc3ccccc3s2)cc1`, the Potency is reported as inconclusive: 18.5 µM [inhibitor, single point].
With `COc1cccc(C2CC(C(F)(F)F)n3ncc(C(=O)Nc4c(C)n(C)n(-c5ccccc5)c4=O)c3N2)c1` (centres undefined) the Potency was inconclusive: 9.28 µM [inhibitor, single point].
